In patent US20140170239A1 (VRIJE UNIVERSITEIT BRUSSEL, published 2014):
These are yes or no findings as the source states them, for the method shown. Some results given as binding are weak or reduced against the parent protein; the word gives no strength. Where no end group is shown, it is not given here.

B1: P73_HUMAN peptide ILIIITL (peptide)
peptide: ILIIITL
notes: spot-synthesized on membrane; also called p73β; position Nr 35
B2: P53_HUMAN peptide ILTIITL (immobilised spot) (peptide)
peptide: ILTIITL
notes: spot-synthesized on membrane; also called p53β; position Nr 1
B3: P63_HUMAN peptide ILIIVTL (peptide)
peptide: ILIIVTL
notes: spot-synthesized on membrane; also called p63β; position Nr 16
B4: CPNE2_HUMAN peptide ILLIITD (peptide)
peptide: ILLIITD
notes: spot-synthesized on membrane; also called Copine-2 (CPNE2) segment; position Nr 42
B5: METH_HUMAN peptide ILTIGTG (peptide)
peptide: ILTIGTG
notes: spot-synthesized on membrane; also called methionine synthase (METH) segment; position Nr 38
B6: CGRF1_HUMAN peptide ITTGITL (peptide)
peptide: ITTGITL
notes: spot-synthesized on membrane; also called CGRF1 segment; position Nr 30
B7: ANXA6_HUMAN peptide ILDIITS (peptide)
peptide: ILDIITS
notes: spot-synthesized on membrane; also called annexin-6 peptide fragment; position Nr 29

Target: T1, biotinylated p53β peptide (human, also: biotinylated, site not given here)
T1 construct: also called biotinylated p53-aggregating peptide
T1 peptide: ILTIITL
Assay: peptide-binding assay: peptide spots on membrane, biotinylated p53β peptide, streptavidin-HRP

**Q.** For B1, which binding is on record?
**A.** binds

**Q.** With B2 as the binder, how does the binding read?
**A.** binds

**Q.** With B3 as the binder, how does the binding read?
**A.** binds

**Q.** B4 was tested. Which binding did it give?
**A.** binds

**Q.** How did the binding turn out when B5 was run?
**A.** binds

**Q.** For B6, which binding is on record?
**A.** binds

**Q.** With B7 as the binder, how does the binding read?
**A.** binds
